Experimental findings from PMC12284618 (Chemistry (Weinheim an Der Bergstrasse, Germany), 2025) are described below.

The nature of this series: general procedure: Fmoc solid-phase peptide synthesis; Fmoc-Rink MBHA Amide resin (low loading, 0.42 mmol/g); HBTU/HOBt/DIPEA, then DIC/HOBt (double coupling). The conditions noted are these: late stage modification step; for final HPLC purity: 218 nm.

HELM strings list residues between dots; [ac] is acetyl, [am] amide, other brackets name non-standard units.

In the case of “PEPTIDE1{[PraTzM6Po].W.[PraTzM6Po].K.[PraTzM6Po].[am]}$$$$V2.0”, the step yield amounted to 54% and the “final HPLC purity” value is on record as no less than 95%.
In the same order, the values of “PEPTIDE1{[ac].[PraTzM6Po].W.[PraTzM6Po].[Lys(Ac)].[PraTzM6Po].[am]}$$$$V2.0” are 44% and no less than 95%.
